Reference: patent US20230357414A1 (SYNTHEKINE, published 2023)
No constants are given. Whether binding was seen depends on the method and setting. Some entries that bind do so weakly or less than the wild type.

Molecular target: T1, extracellular domain of human IL12Rb2 (amino acids 24-622 of hIL12Rb2, UniProt Q99665) (human, UniProt Q99665 24-622)
T1 construct: also called hIL12Rb2 ECD; hIL12Rb2-ECD
T1 sequence: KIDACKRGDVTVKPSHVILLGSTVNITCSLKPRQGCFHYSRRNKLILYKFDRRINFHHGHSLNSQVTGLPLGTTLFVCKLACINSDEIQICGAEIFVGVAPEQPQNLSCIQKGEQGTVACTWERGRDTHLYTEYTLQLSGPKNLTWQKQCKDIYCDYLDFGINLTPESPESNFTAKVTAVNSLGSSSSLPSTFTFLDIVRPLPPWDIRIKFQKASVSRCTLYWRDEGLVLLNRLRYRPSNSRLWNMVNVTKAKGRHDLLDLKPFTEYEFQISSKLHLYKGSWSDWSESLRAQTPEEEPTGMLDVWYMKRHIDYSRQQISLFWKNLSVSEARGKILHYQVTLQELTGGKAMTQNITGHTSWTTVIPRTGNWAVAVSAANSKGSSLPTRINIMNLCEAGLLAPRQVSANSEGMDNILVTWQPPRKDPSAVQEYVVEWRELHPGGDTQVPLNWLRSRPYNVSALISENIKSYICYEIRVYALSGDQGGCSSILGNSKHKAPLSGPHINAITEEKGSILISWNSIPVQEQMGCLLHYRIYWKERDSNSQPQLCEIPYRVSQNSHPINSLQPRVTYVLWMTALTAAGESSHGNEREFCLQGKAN
Experiment: periplasmic extract ELISA on antigen-coated plate; positive if A450 at least threefold over PBS-coated control
Method: Upon completion of the biopanning of Example 3, three 96-well plates of individual phage clones were isolated in order to perform periplasmic extract ELISA (PE-ELISA) on IL12Rb2 coated plates to identify positive VHH binders that selectively bound IL12Rb2. A 96-well plate was coated with IL12Rb2 and PBS under the same conditions. Next, wells were blocked at 37° C. for 1 h. Then, 100 μl of extracted antibodies was added to each well and incubated for 1 h. Subsequently, 100 μl of anti-tag polyclonal antibody conjugated to HRP was added to each well and incubated at 37° C. for 1 h. Plates were developed with TMB substrate. The reaction was stopped by the addition of H2SO4. Absorbance at 450 nm was read on a microtiter plate reader. Antibodies with absorbance of the antigen-coated well at least threefold greater than PBS-coated control are VHHs that specifically bind to IL 12Rb2. Positive clones were sequenced, and sequences analyzed to identify unique clonotypes

B1: VHH15 (VHH, not shown: large carriers)
VHH: QVQLQESGGGSVQAGGSLRLSCAASGFTISRYCMGWLRQAPGKQREGVAIIERDGRTGYADSVKGRFTISKDNAKNTLYLQMNSLKPEDTAMYYCGAIEGSCRPDLGYRGQGTQVTVSS
With B1 the binding was “binds”.

B2: VHH18 (VHH, not shown: large carriers)
VHH: QVQLQESGGGSVQAGGSLRLSCSASGFTVDDFAMGWYRQAPGNECELVSTISSGGSTYYADSVKGRFTISQDSAKNTVYLQMNSLKPEDTAVYYCAPSSVGCPLGYWGQGTQVTVSS
With B2 the binding was “binds”.
